From PMC3260263, “Structural Characterization of a Novel Chlamydia pneumoniae Type III Secretion-Associated Protein, Cpn0803” (PLoS ONE, 2012) come the findings set out here.

These are yes or no findings as the source states them, for the method shown. Binding seen in cells or lysates may run through a third protein. Binding calls can cover weak binding; strength is not graded here. For some of these results: Sequences can lack the tags named with a protein.

In assay [1] the target is T1, GST-Cpn0803_(1–50) (Chlamydia pneumoniae CWL029) (UniProt Q9Z7A3).
T1 sequence: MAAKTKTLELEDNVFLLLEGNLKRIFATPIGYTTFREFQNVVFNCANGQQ
As to the kind of experiment: pull-down; GST-tagged protein (50 ng) on glutathione-agarose beads incubated overnight at 4°C with E. coli lysate expressing the His-tagged protein; washed with 0.1% Triton X-100 and increasing NaCl (500 mM, high salt); anti-His Western blot; only the target purified.

Assay [2] has as its target T2, GST-Cpn0803_(120–180) (Chlamydia pneumoniae CWL029) (UniProt Q9Z7A3).
T2 sequence: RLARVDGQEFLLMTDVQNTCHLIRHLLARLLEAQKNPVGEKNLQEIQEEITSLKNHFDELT
The assay is described as above.

Assay [3] concerns the target GST-CdsQ (Chlamydia pneumoniae CWL029). As to the kind of experiment: pull-down; C. pneumoniae EB lysate (PBS, 1% Triton X-100) incubated with recombinant GST-tagged proteins for 6 h, glutathione agarose beads overnight; washed with 500 mM NaCl; Western blot with anti-Cpn0803; only the target purified.
Assay [4] addresses GST-CdsF (Chlamydia pneumoniae CWL029). The assay is described as above.
Assay [5] addresses GST-CdsN (Chlamydia pneumoniae CWL029). The description is as above.
Assay [6] addresses GST-CdsQ (Chlamydia pneumoniae CWL029). As to the kind of experiment: pull-down; GST-tagged protein (50 ng) on glutathione-agarose beads incubated overnight at 4°C with E. coli lysate expressing the His-tagged protein; washed with 0.1% Triton X-100 and increasing NaCl (500 mM, high salt); anti-His Western blot; only the target purified.
The target in assay [7] is GST-CdsF (Chlamydia pneumoniae CWL029). The assay is described as above.
Assay [8] addresses GST-CdsN (Chlamydia pneumoniae CWL029). The assay is described as above.

In the case of “His-CdsN (Chlamydia pneumoniae CWL029) (enzyme)”, the binding entry in assay [1] is given as “binds”; in assay [2], “no binding”.

For the molecule His-CdsQ (Chlamydia pneumoniae CWL029), the binding result in assay [1] was “no binding”; in assay [2], “binds”.

B1: native Cpn0803 (protein, UniProt Q9Z7A3 1-184)
chain: MAAKTKTLELEDNVFLLLEGNLKRIFATPIGYTTFREFQNVVFNCANGQQEIANFFFEMLINGKLTQELAPQQKQAAHSLIAEFMMPIRVAKDIHERGEFINFITSDMLTQQERCIFLNRLARVDGQEFLLMTDVQNTCHLIRHLLARLLEAQKNPVGEKNLQEIQEEITSLKNHFDELTKALQ
Regarding B1, the binding entry in assay [3], in assay [4] and in assay [5] was “binds” throughout.

B2: His-Cpn0803 (natural protein)
chain: B1 chain
notes: Cpn0803 of Chlamydia pneumoniae CWL029 (ortholog of C. trachomatis CT584), 184 amino acids; Hexamer and dimer in solution by gel filtration; a SeMet derivative was used for phasing only; also called recombinant His-Cpn0803; full-length Cpn0803; source: E. coli, over-expressed, in lysate (glutathione plate assay, GST pull-down); E. coli, purified on a column eluted with 300 mM imidazole …
In the case of B2, the binding entry in assay [6], in assay [7] and in assay [8] was “binds” each time.
